Measured values from paper PMC9027016.
These are yes or no findings as the source states them, for the method shown. In cells and extracts the contact can be indirect. A result given as binding can be weak or reduced; the word gives no strength.

The chains behind the UniProt entries cited, without tags or fusion partners. Residues count along the entry.
UniProt P55066, residues 23-1268: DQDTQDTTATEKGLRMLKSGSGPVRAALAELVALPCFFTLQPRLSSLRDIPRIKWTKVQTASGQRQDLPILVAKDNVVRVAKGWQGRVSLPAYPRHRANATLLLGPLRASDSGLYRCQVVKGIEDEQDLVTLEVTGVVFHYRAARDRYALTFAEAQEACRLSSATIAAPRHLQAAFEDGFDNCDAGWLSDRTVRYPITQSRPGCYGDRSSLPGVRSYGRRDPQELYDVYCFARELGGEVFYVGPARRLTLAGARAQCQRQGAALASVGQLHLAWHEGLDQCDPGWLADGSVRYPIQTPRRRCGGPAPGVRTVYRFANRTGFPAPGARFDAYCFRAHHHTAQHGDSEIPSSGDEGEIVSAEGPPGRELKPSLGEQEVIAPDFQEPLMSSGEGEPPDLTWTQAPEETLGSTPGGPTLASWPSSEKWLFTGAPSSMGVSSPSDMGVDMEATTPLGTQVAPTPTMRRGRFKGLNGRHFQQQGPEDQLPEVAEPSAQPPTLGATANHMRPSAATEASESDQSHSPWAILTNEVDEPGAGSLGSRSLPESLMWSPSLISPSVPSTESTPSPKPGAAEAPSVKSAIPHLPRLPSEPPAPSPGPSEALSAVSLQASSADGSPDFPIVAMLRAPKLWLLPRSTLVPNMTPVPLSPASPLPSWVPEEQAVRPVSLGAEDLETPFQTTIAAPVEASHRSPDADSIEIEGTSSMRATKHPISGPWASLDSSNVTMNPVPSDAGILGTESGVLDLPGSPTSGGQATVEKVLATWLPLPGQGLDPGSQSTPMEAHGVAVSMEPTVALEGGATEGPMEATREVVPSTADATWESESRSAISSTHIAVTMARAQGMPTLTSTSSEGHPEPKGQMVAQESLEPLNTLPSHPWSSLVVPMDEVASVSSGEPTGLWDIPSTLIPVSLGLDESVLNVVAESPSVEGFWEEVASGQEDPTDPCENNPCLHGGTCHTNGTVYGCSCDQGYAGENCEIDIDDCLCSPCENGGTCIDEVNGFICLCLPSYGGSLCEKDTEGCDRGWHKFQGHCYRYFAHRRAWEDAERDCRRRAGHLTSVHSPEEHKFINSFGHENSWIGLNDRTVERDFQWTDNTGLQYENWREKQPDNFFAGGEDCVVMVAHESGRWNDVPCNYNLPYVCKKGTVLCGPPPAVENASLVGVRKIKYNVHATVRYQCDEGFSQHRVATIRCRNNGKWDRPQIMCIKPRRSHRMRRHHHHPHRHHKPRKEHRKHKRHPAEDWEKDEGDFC
UniProt Q61361, residues 23-883: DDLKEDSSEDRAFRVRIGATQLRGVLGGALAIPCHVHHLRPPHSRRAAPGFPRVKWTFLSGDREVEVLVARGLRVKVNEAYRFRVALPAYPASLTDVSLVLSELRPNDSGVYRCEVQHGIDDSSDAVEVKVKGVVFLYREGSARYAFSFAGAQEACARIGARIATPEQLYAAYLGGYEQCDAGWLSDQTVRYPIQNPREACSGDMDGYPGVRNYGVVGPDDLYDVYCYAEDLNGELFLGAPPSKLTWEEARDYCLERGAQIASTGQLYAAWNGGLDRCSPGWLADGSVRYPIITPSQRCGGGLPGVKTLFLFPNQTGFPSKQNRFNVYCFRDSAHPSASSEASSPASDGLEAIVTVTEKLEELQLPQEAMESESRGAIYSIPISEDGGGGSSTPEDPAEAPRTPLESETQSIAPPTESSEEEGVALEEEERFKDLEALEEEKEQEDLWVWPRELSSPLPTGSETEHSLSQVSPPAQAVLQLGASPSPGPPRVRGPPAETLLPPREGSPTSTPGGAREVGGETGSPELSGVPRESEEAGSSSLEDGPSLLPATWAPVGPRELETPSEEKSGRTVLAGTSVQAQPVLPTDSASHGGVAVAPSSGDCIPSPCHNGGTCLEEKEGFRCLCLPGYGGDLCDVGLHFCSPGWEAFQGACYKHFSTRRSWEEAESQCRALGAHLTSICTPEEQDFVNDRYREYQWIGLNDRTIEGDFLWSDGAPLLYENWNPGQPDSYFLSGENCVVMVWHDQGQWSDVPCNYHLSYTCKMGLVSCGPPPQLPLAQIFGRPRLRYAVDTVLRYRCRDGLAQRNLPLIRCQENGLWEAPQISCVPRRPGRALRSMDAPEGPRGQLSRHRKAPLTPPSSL
UniProt Q61282, residues 20-2132: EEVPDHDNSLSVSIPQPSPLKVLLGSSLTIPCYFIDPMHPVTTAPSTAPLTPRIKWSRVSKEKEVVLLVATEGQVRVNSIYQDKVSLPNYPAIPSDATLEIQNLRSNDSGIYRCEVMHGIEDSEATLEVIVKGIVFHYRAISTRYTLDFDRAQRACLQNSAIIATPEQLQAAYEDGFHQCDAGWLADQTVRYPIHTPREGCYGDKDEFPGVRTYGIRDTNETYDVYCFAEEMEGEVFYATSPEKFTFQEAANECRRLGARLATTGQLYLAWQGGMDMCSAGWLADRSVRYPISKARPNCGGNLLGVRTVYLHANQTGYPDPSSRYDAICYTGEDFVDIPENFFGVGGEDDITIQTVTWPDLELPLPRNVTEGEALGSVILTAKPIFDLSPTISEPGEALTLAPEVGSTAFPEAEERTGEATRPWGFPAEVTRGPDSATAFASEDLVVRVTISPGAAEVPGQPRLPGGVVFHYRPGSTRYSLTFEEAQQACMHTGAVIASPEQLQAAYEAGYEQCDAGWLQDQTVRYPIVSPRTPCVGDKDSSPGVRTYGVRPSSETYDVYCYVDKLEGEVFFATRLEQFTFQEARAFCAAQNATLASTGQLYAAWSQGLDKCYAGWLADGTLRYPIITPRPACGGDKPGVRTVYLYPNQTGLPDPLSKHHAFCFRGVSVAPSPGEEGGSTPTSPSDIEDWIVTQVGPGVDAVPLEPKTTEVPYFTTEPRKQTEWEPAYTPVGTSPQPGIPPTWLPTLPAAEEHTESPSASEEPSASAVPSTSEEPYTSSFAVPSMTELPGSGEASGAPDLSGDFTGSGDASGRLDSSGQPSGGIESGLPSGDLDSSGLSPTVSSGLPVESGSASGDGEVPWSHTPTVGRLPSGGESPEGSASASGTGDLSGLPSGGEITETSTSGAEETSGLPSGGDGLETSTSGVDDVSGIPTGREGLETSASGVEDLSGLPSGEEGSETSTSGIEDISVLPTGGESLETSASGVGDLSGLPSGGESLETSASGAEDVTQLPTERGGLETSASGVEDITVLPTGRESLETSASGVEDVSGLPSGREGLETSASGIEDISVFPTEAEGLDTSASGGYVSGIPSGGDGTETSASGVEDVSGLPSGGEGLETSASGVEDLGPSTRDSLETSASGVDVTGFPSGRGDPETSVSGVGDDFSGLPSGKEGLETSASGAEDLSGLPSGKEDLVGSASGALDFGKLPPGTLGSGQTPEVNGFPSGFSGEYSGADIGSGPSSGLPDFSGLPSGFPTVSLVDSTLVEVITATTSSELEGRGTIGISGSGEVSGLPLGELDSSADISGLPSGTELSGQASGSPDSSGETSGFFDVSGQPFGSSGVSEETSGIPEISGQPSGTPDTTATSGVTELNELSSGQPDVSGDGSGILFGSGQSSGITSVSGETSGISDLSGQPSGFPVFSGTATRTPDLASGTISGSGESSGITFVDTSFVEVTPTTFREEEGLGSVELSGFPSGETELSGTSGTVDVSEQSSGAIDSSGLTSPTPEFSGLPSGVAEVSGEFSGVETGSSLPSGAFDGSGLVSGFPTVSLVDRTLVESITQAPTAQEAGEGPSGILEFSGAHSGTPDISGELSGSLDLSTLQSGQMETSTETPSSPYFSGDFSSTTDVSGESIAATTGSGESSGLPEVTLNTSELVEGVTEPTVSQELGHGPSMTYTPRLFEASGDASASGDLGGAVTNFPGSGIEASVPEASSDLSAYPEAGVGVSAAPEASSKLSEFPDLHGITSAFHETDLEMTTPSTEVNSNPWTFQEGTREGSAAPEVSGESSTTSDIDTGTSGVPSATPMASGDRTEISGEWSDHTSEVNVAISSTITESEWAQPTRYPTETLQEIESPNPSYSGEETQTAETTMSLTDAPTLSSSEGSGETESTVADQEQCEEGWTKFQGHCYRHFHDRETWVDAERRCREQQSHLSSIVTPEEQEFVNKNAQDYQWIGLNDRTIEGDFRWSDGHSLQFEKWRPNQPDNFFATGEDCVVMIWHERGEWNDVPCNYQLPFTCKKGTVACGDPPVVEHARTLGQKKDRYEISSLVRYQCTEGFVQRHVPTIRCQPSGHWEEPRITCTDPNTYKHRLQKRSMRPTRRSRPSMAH

How the values were obtained:
Assay in all cases: co-IP; capture antibodies against aggrecan, brevican, neurocan or HAPLN1 on Dynabeads Protein A and G; 500 µg brain homogenate of C57BL/6J mice (0.5% Triton X-100 extract) overnight at 4 °C; eluate blotted with pan tau antibody; Mapt KO homogenate as negative control
[1] = target: neurocan (mouse (endogenous in C57BL/6J brain)) (UniProt P55066)
[2] = target: brevican (mouse (endogenous in C57BL/6J brain)) (UniProt Q61361)
[3] = target: T1, hyaluronan and proteoglycan link protein 1 (HAPLN1) (mouse (endogenous in C57BL/6J brain)) (UniProt Q9QUP5)
T1 sequence: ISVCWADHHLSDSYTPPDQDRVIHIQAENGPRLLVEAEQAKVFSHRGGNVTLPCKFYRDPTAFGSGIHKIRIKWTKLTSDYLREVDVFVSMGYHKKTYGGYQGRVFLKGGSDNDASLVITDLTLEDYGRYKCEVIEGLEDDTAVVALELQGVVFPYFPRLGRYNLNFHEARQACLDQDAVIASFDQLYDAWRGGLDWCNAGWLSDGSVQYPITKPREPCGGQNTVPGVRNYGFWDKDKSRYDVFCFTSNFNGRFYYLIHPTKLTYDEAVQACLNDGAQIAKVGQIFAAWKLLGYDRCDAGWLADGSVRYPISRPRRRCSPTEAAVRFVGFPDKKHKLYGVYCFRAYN

[4] = target: aggrecan (mouse (endogenous in C57BL/6J brain)) (UniProt Q61282)

binding [1]: binds
binding [2]: binds
binding [3]: binds
binding [4]: binds
Substance: tau protein (endogenous murine tau) (from UniProt P10637-2)
